These results are taken from paper PMC3219729.

The target in the assay is T1, splicing factor proline-glutamine rich (SFPQ/PSF) (human (endogenous in A549)) (UniProt P23246).
T1 sequence: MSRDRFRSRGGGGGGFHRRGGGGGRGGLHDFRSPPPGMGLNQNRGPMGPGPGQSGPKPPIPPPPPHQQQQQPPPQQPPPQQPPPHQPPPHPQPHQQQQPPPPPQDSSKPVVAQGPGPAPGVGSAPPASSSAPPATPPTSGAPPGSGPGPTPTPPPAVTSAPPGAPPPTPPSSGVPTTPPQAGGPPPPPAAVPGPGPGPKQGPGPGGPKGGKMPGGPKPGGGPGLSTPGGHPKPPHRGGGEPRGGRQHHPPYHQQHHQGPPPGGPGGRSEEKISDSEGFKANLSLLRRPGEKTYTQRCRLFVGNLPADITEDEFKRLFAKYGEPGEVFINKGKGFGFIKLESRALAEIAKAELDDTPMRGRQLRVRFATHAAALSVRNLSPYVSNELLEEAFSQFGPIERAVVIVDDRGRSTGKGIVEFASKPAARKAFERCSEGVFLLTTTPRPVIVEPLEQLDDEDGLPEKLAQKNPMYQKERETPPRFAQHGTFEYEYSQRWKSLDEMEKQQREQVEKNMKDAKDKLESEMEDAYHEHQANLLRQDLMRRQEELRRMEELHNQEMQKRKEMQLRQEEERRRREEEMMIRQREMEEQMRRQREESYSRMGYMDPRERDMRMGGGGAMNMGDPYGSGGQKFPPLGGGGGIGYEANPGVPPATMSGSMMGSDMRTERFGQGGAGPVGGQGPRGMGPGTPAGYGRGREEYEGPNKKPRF
Kind of assay: co-IP.

No constants are given. Whether binding was seen depends on the method and setting. Binding seen in cells or lysates may run through a third protein. Binding can be weak; no strength is given.

“nucleoprotein (NP) of influenza virus A/Victoria/3/75 (H3N2)”: the binding result is given as “binds”.
